Laboratory results: PubChem BioAssay AID1159578 (Peter MacCallum Cancer Centre, 2015)
This is one part, drawn at random, of about 18,000 deposited reagents. Of all reagents, about 1,030 (5.7%) got an active call. 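Inactive calls also include pools with fewer than 3300 nuclei, whose migration was not assessed.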 The raw values are shown without normalisation. No sequences are given here.

Screen: 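siRNA pools altering how lymphatic endothelial cells close a scratch wound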 (primary screen)
System: human lymphatic endothelial cells
Knock-down reagent: siRNA pool against human genes, 40 nM
Timing: 48 h after transfection
Read-out: 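Cells stained with dye and imaged after a scratch; covered wound area and nuclei counted, duplicates averaged, migration set against mock wells and turned into a robust z-score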
Reading the numbers: migration robust z-score: higher = faster migration into the scratch; migration relative to mock: higher = more scratch area covered than mock; nuclei per well: higher = more cells in the well
Active means: 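Pools averaging fewer than 3300 nuclei are never called; remaining pools count as changed when migration robust z lies outside -2 to 2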
Meaning of the calls: active = migration changed; inactive = no migration change, or too few cells

no.	gene	migration robust z-score	migration class with cell-count check	migration relative to mock	nuclei per well, duplicate mean	activity call
1	KIF3B	0.26	migration z between -2 and 2; enough cells	0.86	4132	inactive
2	SGIP1	2.69	migration z above 2; enough cells	1.58	7124	active
3	ARHGEF35	-1.13	migration z between -2 and 2; enough cells	0.6	5676	inactive
4	IL20	-0.6	migration z between -2 and 2; enough cells	0.73	5884	inactive
5	ALDH3A1	-0.11	migration z between -2 and 2; enough cells	0.78	5932	inactive
6	ATAT1	0.46	migration z between -2 and 2; enough cells	1	6094	inactive
7	TUBGCP3	-0.45	migration z between -2 and 2; enough cells	0.77	5685	inactive
8	FMR1	-1.56	migration z between -2 and 2; enough cells	0.48	5357	inactive
9	UTP4	-0.62	migration z between -2 and 2; enough cells	0.72	6350	inactive
10	PRSS23	1.68	migration z between -2 and 2; enough cells	1.13	5014	inactive
11	DOCK3	0.86	migration z between -2 and 2; enough cells	1.11	5830	inactive
12	FAM3C	-0.64	migration z between -2 and 2; enough cells	0.72	5441	inactive
13	BEND2	-0.12	migration z between -2 and 2; enough cells	0.85	6693	inactive
14	LIN54	0.62	migration z between -2 and 2; enough cells	1.04	3706	inactive
15	EHD4	-0.62	migration z between -2 and 2; enough cells	0.68	5384	inactive
16	BID	1.01	migration z between -2 and 2; enough cells	1	6457	inactive
17	HMGN1	-3.55	under 3300 nuclei; migration not judged	0.12	2422	inactive
18	TECR	1.14	migration z between -2 and 2; enough cells	1.02	5734	inactive
19	STK32A	0	migration z between -2 and 2; enough cells	0.8	5953	inactive
20	HEBP2	-0.26	migration z between -2 and 2; enough cells	0.82	5706	inactive
21	CNTN6	1.25	migration z between -2 and 2; enough cells	1.04	5167	inactive

Part of the list above in another layout:
LIN54
- migration robust z-score: 0.62
- migration class with cell-count check: migration z between -2 and 2; enough cells
- migration relative to mock: 1.04
- nuclei per well, duplicate mean: 3706
- activity call: inactive

EHD4
- migration robust z-score: -0.62
- migration class with cell-count check: migration z between -2 and 2; enough cells
- migration relative to mock: 0.68
- nuclei per well, duplicate mean: 5384
- activity call: inactive

BID
- migration robust z-score: 1.01
- migration class with cell-count check: migration z between -2 and 2; enough cells
- migration relative to mock: 1
- nuclei per well, duplicate mean: 6457
- activity call: inactive

HMGN1
- migration robust z-score: -3.55
- migration class with cell-count check: under 3300 nuclei; migration not judged
- migration relative to mock: 0.12
- nuclei per well, duplicate mean: 2422
- activity call: inactive

Next records follow:
no.	gene	migration robust z-score	migration class with cell-count check	migration relative to mock	nuclei per well, duplicate mean	activity call
22	APOC4	-1.03	migration z between -2 and 2; enough cells	0.6	5296	inactive
23	MOXD1	0.91	migration z between -2 and 2; enough cells	0.98	7484	inactive
24	TRIM9	0.03	migration z between -2 and 2; enough cells	0.89	6206	inactive
25	VMA12	-0.5	migration z between -2 and 2; enough cells	0.76	4934	inactive
26	PNPLA3	-2.06	migration z below -2; enough cells	0.36	3763	active
27	LTB	1.02	migration z between -2 and 2; enough cells	1.15	5046	inactive
28	TM9SF2	-0.8	migration z between -2 and 2; enough cells	0.68	6762	inactive
29	IMP3	-1.23	migration z between -2 and 2; enough cells	0.57	5968	inactive
30	FAM47A	0.9	migration z between -2 and 2; enough cells	1.12	6244	inactive
31	HPRT1	0.34	migration z between -2 and 2; enough cells	0.87	5224	inactive
32	ZMAT3	0.26	migration z between -2 and 2; enough cells	0.95	5928	inactive
33	KIF2B	0	migration z between -2 and 2; enough cells	0.8	6086	inactive
34	FRAS1	0.41	migration z between -2 and 2; enough cells	0.99	5386	inactive
35	BRSK1	-0.98	under 3300 nuclei; migration not judged	0.62	3004	inactive
36	TRIM40	-0.55	migration z between -2 and 2; enough cells	0.7	4998	inactive
37	ZNF10	0.18	migration z between -2 and 2; enough cells	0.93	6549	inactive
38	RFX1	-0.16	migration z between -2 and 2; enough cells	0.77	5334	inactive
39	GJD2	-0.96	migration z between -2 and 2; enough cells	0.64	6528	inactive
